Primary screen of a compound library

The values are deposited in ChEMBL (CHEMBL3988442, “University of Dundee, Small-Polar-MMV Screening Library” (2021)).

Mtb growth Cornell: 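Whole-cell assay for inhibitors of Mycobacterium tuberculosis growth, labelled Cornell in the record; the read-out is not stated. The concentration is filed as 10 mM, unlikely as a test dose, so the dose is not known. Higher means stronger inhibition (inferred from two other growth screens of the library). Of about 53,000 compounds tested this way, about 900 (1.7%) reached 50% or more in at least one test.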
Mtb heat-shock: 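Assay on Mycobacterium tuberculosis, filed only as a heat shock assay from Cornell; the read-out is not stated. The concentration is filed as 10 mM, unlikely as a test dose, so the dose is not known. Higher reads as stronger inhibition (inferred: compounds with an IC50 in retests scored well above the rest). About 69,000 compounds were tested under these conditions; 1.4% (about 930) showed 50% or more at least once.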

Results are given as percent effect.
The controls that fix the scale are not given in the record; negative values are as filed.
Compounds were drawn at random from those tested, without regard to their results.

SMILES: CC(=O)NC(CC(=O)Nc1nc(C)c(C)s1)c1ccccc1 (stereo not shown)
Mtb growth Cornell: 8.445%
Mtb heat-shock: 15.3%

SMILES: O=C(Cn1cc(-c2ccccc2)cn1)NC(C1CC1)C1CC1
Mtb growth Cornell: -27.78%
Mtb heat-shock: 0.3635%

SMILES: O=C(O)[C@H]1C[C@H](C(=O)NC2CC2)CN(Cc2ccc(-c3cc[nH]n3)s2)C1
Mtb growth Cornell: 22.67%
Mtb heat-shock: -11.38%

SMILES: O=C(NC1CCN(C2CC2)CC1)NC1CCOc2ccc(Br)cc21 (stereo not shown)
Mtb heat-shock: -30.52%

SMILES: O=C(O)Cc1cnc(-c2c(Cl)cccc2Cl)s1
Mtb growth Cornell: -27.99%
Mtb heat-shock: 21.92%

SMILES: OCCc1cc(CC2(NCc3ccc(C(F)(F)F)cc3)COC2)no1
Mtb growth Cornell: 13.17%
Mtb heat-shock: -4.702%

SMILES: CCCc1n[nH]c(C2CN(C(=O)c3cccnc3N(C)C)CCO2)n1 (stereo not shown)
Mtb growth Cornell: -4.649%
Mtb heat-shock: -8.508%

SMILES: CC(C)(C)OC(=O)Cn1cccc(S(=O)(=O)N2CCCCCC2)c1=O
Mtb growth Cornell: -4.616%
Mtb heat-shock: -4.032%

SMILES: Cc1noc(C)c1C1CCCN1C(=O)CN1C(=O)OC(C)(C)C1=O (stereo not shown)
Mtb growth Cornell: -15.69%
Mtb heat-shock: -8.22%

SMILES: COc1cc(CN(C)C(=O)NCc2cccnc2OC)ccc1SC
Mtb heat-shock: -32.6%

SMILES: Cc1cc(C)n(CC(C)NC2CCN(Cc3cccnc3)CC2)n1 (stereo not shown)
Mtb growth Cornell: 6.724%
Mtb heat-shock: -9.246%

SMILES: O=C(NCC1CCS(=O)(=O)C1)c1ccco1 (stereo not shown)
Mtb growth Cornell: 11.88%
Mtb heat-shock: 2.698%

SMILES: CCOCC1CN(S(=O)(=O)C2CC2)Cc2nn(C)cc21 (stereo not shown)
Mtb growth Cornell: -7.5%
Mtb heat-shock: -2.895%

SMILES: CCC1=NC(SCC(=O)c2ccccc2)c2cc(CC)sc2N1 (stereo not shown)
Mtb heat-shock: -7.11%

SMILES: OC1(CNC2CCN(c3ccccn3)CC2)CCc2ccccc21 (stereo not shown)
Mtb growth Cornell: 0.5548%
Mtb heat-shock: -16.63%

SMILES: CC(C)(C)Oc1ccc(CN)c(C(F)(F)F)c1
Mtb growth Cornell: -16.34%
Mtb heat-shock: -10.11%

SMILES: CC(C)(C)C(=O)N1CCC(c2cnc(-c3cn[nH]c3)cn2)CC1
Mtb growth Cornell: 35.18%
Mtb heat-shock: -22.74%

SMILES: CCC(C)NS(=O)(=O)c1ccc(/C=C\c2onc(C)c2NC(C)=O)cc1 (stereo not shown)
Mtb heat-shock: 17.02%

SMILES: CN1CCCC(NC(=O)c2ccc(C(=O)c3cc[nH]c3)cc2)C1 (stereo not shown)
Mtb heat-shock: -16.33%

SMILES: CCOC(=O)N1[C@@H](c2ccco2)[C@@H](C(=O)O)C[C@]12CCCCNC2=O
Mtb growth Cornell: -24.64%
Mtb heat-shock: 36.73%

SMILES: O=C(O)C(F)(F)F.O=C(c1ccco1)N1CCc2c(COCC3CC3)cncc2C1
Mtb growth Cornell: 15.74%
Mtb heat-shock: 2.574%

SMILES: CCCNC(=O)CCC(=O)n1nc(C)c2ccccc21
Mtb growth Cornell: 13%
Mtb heat-shock: 5.005%

Some entries from above, unchanged:

{"smiles": "CC(C)(C)Oc1ccc(CN)c(C(F)(F)F)c1", "Mtb growth Cornell": -16.34, "Mtb heat-shock": -10.11}
{"smiles": "CN1CCCC(NC(=O)c2ccc(C(=O)c3cc[nH]c3)cc2)C1", "stereo": "stereo not shown", "Mtb heat-shock": -16.33}